These are yes or no findings as the source states them, for the method shown.
Columns and labels:
[1] = target: ENTH domain mutant R114A (rat) (UniProt O88339); test: atomic force microscopy; 1 µM protein, 2 h RT, on supported bilayers with PS (DOPC/DOPE/DOPS/PI(4,5)P2/Texas Red DHPE 44.9:30:20:5:0.1) on silicon dioxide, PBS, contact mode; protein clusters on the membrane; both purified
[2] = target: ENTH domain mutant R114A (rat) (UniProt O88339); test: SDS-resistant oligomers on SDS-PAGE after liposome co-sedimentation; 20 µM protein with 2 mg/ml LUVs that contain PS (Folch + PI(4,5)P2, or PC/PE/PS/PI(4,5)P2 with 5-20% PS), 3 h 30 °C, HEPES buffer, 205,000 x g, pellet and supernatant on SDS-PAGE; self-association on membranes; both …
[3] = target: Rat Epsin1 WT ENTH 1-164 (rat) (UniProt O88339); test: atomic force microscopy; 1 µM protein, 2 h RT, on PS-free supported bilayers (DOPC/DOPE/PI(4,5)P2/Texas Red DHPE 64.9:30:5:0.1) on silicon dioxide, PBS, contact mode; both purified

binding [1]	binding [2]	Molecule	binding [3]
no binding (tested: 1 µM)	no binding (tested: 20 µM)	ENTH domain mutant R114A (from UniProt O88339 1-164) (domain or fragment)	–
–	–	Rat Epsin1 WT ENTH 1-164 (domain or fragment, UniProt O88339 1-164, looked up, Epsin 1, rat, ENTH (epsin N-terminal homology) domain, residues 1-164; Expressed from pGEX-6P-2; also called ENTH domain; ENTH^WT; source: E. coli BL21(DE3), purified (GSTrap, GST cleaved with PreScission Protease, anion exchange, SEC)) MSTSSLRRQMKNIVHNYSEAEIKVREATSNDPWGPSSSLMSEIADLTYNVVAFSEIMSMIWKRLNDHGKNWRHVYKAMTLMEYLIKTGSERVSQQCKENMYAVQTLKDFQYVDRDGKDQGVNVREKAKQLVALLRDEDRLREERAHALKTKEKLAQTATASSAA	no binding (condition: on PS-free membranes (1 µM ENTH))
